{"sequences": {"note": "By UniProt entry, the sequences of proteins in these tests, tags left out. Residues count along the entry.", "UniProt P43220, 24-463": "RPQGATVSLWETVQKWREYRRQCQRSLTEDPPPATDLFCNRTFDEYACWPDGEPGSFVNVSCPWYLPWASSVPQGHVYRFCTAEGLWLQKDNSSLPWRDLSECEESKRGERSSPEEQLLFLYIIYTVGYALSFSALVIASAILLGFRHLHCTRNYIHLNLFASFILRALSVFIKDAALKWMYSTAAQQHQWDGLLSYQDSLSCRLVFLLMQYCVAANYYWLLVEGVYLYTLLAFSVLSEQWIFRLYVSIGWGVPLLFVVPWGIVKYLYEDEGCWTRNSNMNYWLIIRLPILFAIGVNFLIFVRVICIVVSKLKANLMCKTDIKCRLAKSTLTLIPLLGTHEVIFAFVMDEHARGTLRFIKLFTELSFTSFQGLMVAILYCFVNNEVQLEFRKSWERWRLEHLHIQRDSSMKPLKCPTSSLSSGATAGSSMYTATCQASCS"}, "source": "patent US20120329711A1", "about": "“GLP-1 RECEPTOR AGONIST COMPOUNDS WITH A MODIFIED N-TERMINUS” (Nordisk A/S, priority 2009, published 2012)", "molecular_target": "human GLP-1 receptor (Homo sapiens, UniProt P43220)", "experiment": "GLP-1 receptor binding: displacement of 125I-GLP-1 (SPA) at low and high albumin", "design": "expressed in transfected cells; membranes", "details": "2.0% HSA vs 0.005% HSA", "description": "The binding affinity of the GLP-1 receptor agonist derivatives of Examples 1-12 to the human GLP-1 receptor was measured by way of their ability to displace of ^125I-GLP-1 from the receptor.\nIn order to test the binding of the derivatives to albumin, the assay was performed with a low concentration of albumin (0.005%—corresponding to the residual amount thereof in the tracer), as well as with a high concentration of albumin (2.0% added).\nSpecies (in vitro): Hamster\nBiological End Point: Receptor Binding\nA stable transfected cell line and a high expressing clone were selected for screening. The cells were grown at 5% CO2 in DMEM, 10% FCS, 1% Pen/Strep (Penicillin/Streptomycin) and 1.0 mg/ml of the selection marker G418.\nThe cells (approx. 80% confluence) were washed twice in PBS and harvested with Versene (aqueous solution of the tetrasodium salt of ethylenediaminetetraacetic acid), following which they were separated by centrifugation at 1000 rpm for 5 min. The cells/cell pellet must be kept on ice to the extent possible in the subsequent steps. […] The resulting pellet was resuspended in Buffer 2, and the protein concentration was determined. […]\nTest compounds, membranes, SPA-particles and [^125I]-GLP-1(7-36)NH2 were diluted in assay buffer. […] The plates were centrifuged (1500 rpm, 10 min) and counted in Topcounter. […]", "note": "At least one peptide structure holds a part that was inferred or is arguable (an end, a ring closure or a residue). At least one compound was matched to its structure with a doubt left.", "data": [{"molecule": "CC[C@H](C)[C@H](NC(=O)[C@H](Cc1ccccc1)NC(=O)[C@H](CCC(=O)O)NC(=O)[C@H](CCCCNC(=O)COCCOCCNC(=O)COCCOCCNC(=O)CC[C@H](NC(=O)CCCCCCCCCCCCCCCCC(=O)O)C(=O)O)NC(=O)[C@H](C)NC(=O)[C@H](C)NC(=O)[C@H](CCC(N)=O)NC(=O)CNC(=O)[C@H](CCC(=O)O)NC(=O)[C@H](CC(C)C)NC(=O)[C@H](Cc1ccc(O)cc1)NC(=O)[C@H](CO)NC(=O)[C@H](CO)NC(=O)[C@@H](NC(=O)[C@H](CC(=O)O)NC(=O)[C@H](CO)NC(=O)[C@@H](NC(=O)[C@H](Cc1ccccc1)NC(=O)[C@@H](NC(=O)CNC(=O)[C@H](CCC(=O)O)NC(=O)CCCC(=O)c1ccccc1)[C@@H](C)O)[C@@H](C)O)C(C)C)C(=O)N[C@@H](C)C(=O)N[C@@H](Cc1c[nH]c2ccccc12)C(=O)N[C@@H](CC(C)C)C(=O)N[C@H](C(=O)N[C@@H](CCCNC(=N)N)C(=O)NCC(=O)N[C@@H](CCCNC(=N)N)C(=O)NCC(=O)O)C(C)C", "note": "[Example 11, N^9-(5-oxo-5-phenylpentanoyl), N^ε26-[2-[2-[2-[[2-[2-[2-[[(4S)-4-carboxy-4-(17-carboxyheptadecanoylamino)butanoyl]amino]ethoxy]ethoxy]acetyl]amino]ethoxy]ethoxy]acetyl]-[Arg^34]-GLP-1-(9-37)-peptide]", "values": [{"measurement": "ratio [(IC50/nM) high HSA]/[(IC50/nM) low HSA]", "value": "above 300"}]}]}
